Binding data for two substances are collected here from publication doi:10.1101/2023.04.24.538136.

Sequences of proteins named here, by UniProt entry; tags and fusion partners are left off. A change or cut given only in a name is not applied to a line headed by its entry. Residues count along the entry.
SPEGα (Q62407, residues 855-3262): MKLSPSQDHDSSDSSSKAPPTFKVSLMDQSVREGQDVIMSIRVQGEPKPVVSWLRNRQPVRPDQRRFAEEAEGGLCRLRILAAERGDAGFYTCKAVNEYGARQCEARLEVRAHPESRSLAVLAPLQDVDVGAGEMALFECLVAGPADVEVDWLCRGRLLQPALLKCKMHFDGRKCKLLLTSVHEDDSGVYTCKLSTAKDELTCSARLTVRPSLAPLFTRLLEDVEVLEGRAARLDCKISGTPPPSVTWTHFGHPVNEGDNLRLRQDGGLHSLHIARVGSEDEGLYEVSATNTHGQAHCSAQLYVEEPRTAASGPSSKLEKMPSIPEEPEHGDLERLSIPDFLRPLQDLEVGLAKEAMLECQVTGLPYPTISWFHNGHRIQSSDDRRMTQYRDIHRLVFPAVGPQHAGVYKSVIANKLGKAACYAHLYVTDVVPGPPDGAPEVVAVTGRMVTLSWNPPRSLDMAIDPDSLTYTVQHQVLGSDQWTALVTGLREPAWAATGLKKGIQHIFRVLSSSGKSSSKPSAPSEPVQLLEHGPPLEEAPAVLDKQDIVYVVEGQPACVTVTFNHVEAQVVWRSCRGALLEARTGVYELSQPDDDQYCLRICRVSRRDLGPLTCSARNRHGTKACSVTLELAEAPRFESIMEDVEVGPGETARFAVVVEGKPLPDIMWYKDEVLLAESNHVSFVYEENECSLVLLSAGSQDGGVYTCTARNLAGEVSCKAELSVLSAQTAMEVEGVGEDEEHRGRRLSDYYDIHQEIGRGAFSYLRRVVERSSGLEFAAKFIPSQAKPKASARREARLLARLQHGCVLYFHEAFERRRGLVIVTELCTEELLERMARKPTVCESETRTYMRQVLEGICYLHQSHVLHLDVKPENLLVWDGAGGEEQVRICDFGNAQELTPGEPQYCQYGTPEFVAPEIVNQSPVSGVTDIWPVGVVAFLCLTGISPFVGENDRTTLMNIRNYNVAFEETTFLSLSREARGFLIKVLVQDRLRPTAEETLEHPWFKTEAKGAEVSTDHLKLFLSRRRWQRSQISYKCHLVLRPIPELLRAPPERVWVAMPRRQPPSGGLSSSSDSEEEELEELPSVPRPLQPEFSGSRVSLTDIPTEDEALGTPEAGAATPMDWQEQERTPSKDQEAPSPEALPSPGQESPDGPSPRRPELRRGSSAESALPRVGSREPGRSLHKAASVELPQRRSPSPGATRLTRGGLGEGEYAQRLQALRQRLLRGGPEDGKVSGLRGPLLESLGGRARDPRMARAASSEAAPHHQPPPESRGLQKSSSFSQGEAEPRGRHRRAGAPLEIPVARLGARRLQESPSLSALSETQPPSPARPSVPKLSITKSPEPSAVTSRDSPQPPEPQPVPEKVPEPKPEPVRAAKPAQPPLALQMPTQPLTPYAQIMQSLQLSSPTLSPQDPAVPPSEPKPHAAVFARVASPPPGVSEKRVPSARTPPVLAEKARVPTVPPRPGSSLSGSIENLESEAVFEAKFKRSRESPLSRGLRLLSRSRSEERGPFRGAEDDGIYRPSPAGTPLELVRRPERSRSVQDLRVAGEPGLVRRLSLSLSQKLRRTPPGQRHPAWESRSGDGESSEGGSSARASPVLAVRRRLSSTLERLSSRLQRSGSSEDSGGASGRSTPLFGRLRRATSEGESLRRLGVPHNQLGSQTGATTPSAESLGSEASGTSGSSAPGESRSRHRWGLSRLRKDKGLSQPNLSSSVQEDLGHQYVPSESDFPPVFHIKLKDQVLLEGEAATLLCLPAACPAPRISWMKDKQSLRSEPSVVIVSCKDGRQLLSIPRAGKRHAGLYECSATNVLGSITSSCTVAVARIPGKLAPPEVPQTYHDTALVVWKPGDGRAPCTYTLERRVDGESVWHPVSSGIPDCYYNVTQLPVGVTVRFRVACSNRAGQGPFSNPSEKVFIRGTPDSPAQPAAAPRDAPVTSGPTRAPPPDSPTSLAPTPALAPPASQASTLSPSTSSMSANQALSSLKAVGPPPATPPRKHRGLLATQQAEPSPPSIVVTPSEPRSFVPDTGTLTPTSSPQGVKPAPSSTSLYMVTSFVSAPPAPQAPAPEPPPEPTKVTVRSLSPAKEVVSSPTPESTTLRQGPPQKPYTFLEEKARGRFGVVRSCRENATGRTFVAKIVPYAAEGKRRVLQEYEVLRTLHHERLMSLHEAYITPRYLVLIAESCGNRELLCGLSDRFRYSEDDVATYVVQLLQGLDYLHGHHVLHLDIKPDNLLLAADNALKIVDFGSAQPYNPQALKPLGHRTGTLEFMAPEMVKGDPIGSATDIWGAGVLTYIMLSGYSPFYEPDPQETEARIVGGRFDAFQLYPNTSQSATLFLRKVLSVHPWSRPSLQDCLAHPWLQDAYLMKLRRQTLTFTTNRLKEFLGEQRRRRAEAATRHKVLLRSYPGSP

Results are given in words; binding and its absence hold for the method and conditions named. Binding seen in cells or lysates may run through a third protein. Some entries that bind do so weakly or less than the wild type.

The target in experiment [1] is T1, fibronectin type III and SPRY domain-containing protein 2 (mouse (endogenous in skeletal muscle)) (UniProt Q8BZ52).
T1 sequence: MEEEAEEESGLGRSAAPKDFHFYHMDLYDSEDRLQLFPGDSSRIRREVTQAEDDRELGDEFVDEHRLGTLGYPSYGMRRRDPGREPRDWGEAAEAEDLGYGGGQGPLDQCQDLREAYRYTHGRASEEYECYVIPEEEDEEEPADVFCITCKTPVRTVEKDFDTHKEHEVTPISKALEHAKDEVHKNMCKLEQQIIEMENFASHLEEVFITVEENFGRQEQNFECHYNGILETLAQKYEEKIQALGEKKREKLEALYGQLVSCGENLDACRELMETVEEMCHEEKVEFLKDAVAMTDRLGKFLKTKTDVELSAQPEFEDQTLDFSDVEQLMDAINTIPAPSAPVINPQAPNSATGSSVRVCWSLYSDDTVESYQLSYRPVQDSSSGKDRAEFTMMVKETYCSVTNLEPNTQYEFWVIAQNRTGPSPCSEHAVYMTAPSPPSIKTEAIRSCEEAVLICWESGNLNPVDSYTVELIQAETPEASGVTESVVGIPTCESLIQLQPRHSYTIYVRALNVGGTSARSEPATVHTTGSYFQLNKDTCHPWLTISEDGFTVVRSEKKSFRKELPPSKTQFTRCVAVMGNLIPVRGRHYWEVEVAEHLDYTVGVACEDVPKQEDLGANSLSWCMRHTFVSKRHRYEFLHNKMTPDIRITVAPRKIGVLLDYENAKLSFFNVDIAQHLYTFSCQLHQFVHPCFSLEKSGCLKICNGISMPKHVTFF
The experiment can be described thus: co-IP.

Experiment [2] concerns the target ryanodine receptor 1 (mouse (endogenous in skeletal muscle)) (UniProt E9PZQ0). The experiment can be described thus: co-IP.

As to SPEGα (from UniProt Q62407-4 1-2408), the binding result in experiment [1] and in experiment [2] was “binds” in each case.

As for SPEGβ (from UniProt Q62407-1 1-3262), the binding result in experiment [1] is on record as “binds”.
